PubChem BioAssay AID652259 | Drosophila RNAi Screening Center | 2013
In all, the deposit lists about 22,000 reagents; below is a random part of those with a known target gene and a result. In the full data, 233 (1.1%) got an active call. 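Light values are raw, unnormalised plate reads; the ratio scores behind the reporter calls were not deposited.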 A plus sign joins genes that one reagent is predicted to hit. Not given: the amount of reagent, the time to read-out, the dose of the treatment.

- Test: 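Identify new Wingless signalling regulators in fly cells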 (primary screen)
- Cell system: Drosophila clone 8 imaginal disc epithelial cells
- Reagents: long dsRNA against Drosophila genes
- Conditions: pathway stimulated by co-transfected Wingless expression plasmid
- Measurement: 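Firefly luciferase from a tcf-site Wingless reporter, measured alongside co-transfected Renilla luciferase that tracks transfection; pathway stimulated by a Wingless plasmid; the firefly-to-Renilla ratio is not deposited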
- Reading the numbers: firefly reporter light: higher = more Wg reporter light, before normalisation; Renilla control light: higher = more transfected or surviving cells
- Active means: 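a knock-down is a candidate when at least two out of four statistical tests show it departing from its plate mean; one test alone signals a weak candidate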
- Calls: active = candidate regulator (raises or lowers reporter); inactive = not a candidate

| gene knocked down | dsRNA | reporter change call, replicate 1 | firefly reporter light, replicate 1 | firefly reporter light, replicate 2 | Renilla control light, replicate 1 | Renilla control light, replicate 2 | activity call |
| --- | --- | --- | --- | --- | --- | --- | --- |
| CG14227 | DRSC19584 | – | 4224 | – | 1369 | – | inactive |
| Eig71Ek | DRSC11158 | – | 10104 | – | 3858 | – | inactive |
| CG13154 | DRSC06279 | – | 6213 | – | 1780 | – | inactive |
| Ahcy | DRSC19329 | – | 1338 | 6742 | 600 | 1817 | inactive |
| Mcm3 | DRSC18679 | – | 1692 | 4450 | 599 | 1523 | inactive |
| Hex-t1 | DRSC16701 | – | 21792 | – | 17174 | – | inactive |
| lost | DRSC12002 | – | 2653 | – | 1104 | – | inactive |
| lost | DRSC12234 | – | 10560 | – | 4444 | – | inactive |
| lost | DRSC21987 | – | 7.07e5 | 6.24e5 | 2.58e5 | 2.43e5 | inactive |
| fog | DRSC20646 | – | 1745 | 7795 | 874 | 2115 | inactive |
| CG8229 | DRSC07114 | – | 10876 | – | 3559 | – | inactive |
| Oatp58Da | DRSC04365 | – | 4056 | 8938 | 965 | 4106 | inactive |
| Hr38 | DRSC03345 | Wg reporter activity raised | 5984 | 13363 | 520 | 1666 | active |
| TwdlU | DRSC12224 | – | 19292 | – | 6112 | – | inactive |
| CG9777 | DRSC20208 | – | 24666 | – | 10832 | – | inactive |
| arm | DRSC18738 | Wg reporter activity lowered | 336 | 521 | 1728 | 3136 | active |
| Herp | DRSC02394 | – | 10976 | – | 4996 | – | inactive |
| CG17032 | DRSC10241 | – | 10730 | – | 4308 | – | inactive |
| AGO1 | DRSC05912 | – | 11954 | – | 2875 | – | inactive |
| brv2 | DRSC10226 | – | 5460 | – | 2237 | – | inactive |
| CG6304 | DRSC02948 | – | 8765 | – | 4140 | – | inactive |
| Adk2 | DRSC09827 | – | 4049 | – | 1924 | – | inactive |
| CG15239 | DRSC17972 | – | 11419 | – | 7222 | – | inactive |
| Ranbp21 | DRSC19447 | – | 1922 | 8177 | 788 | 2007 | inactive |
| E(spl)m3-HLH | DRSC16694 | – | 16162 | – | 5051 | – | inactive |
| Arl4 | DRSC17156 | – | 18789 | – | 14672 | – | inactive |
| CG8545 | DRSC07210 | – | 9563 | – | 1848 | – | inactive |
| CG33453 | DRSC05782 | – | 13133 | – | 10708 | – | inactive |
| RpL17 | DRSC18293 | – | 2630 | 8996 | 551 | 1932 | inactive |
| Tom7 | DRSC05135 | – | 13248 | – | 6960 | – | inactive |
| Tom7 | DRSC07113 | – | 3577 | 5242 | 1069 | 2697 | inactive |
| CG14694 | DRSC14917 | – | 14328 | – | 3389 | – | inactive |
| Lkr | DRSC09754 | – | 1088 | 4305 | 1161 | 3488 | inactive |
| CG11112 | DRSC06038 | – | 2416 | 5355 | 594 | 1684 | inactive |
| CG6527 | DRSC10659 | – | 8032 | – | 4466 | – | inactive |
| CG33630 | DRSC14546 | – | 14664 | – | 3623 | – | inactive |
| CG16753 | DRSC08489 | – | 7440 | – | 1035 | – | inactive |
| Gen | DRSC09679 | – | 6161 | – | 2892 | – | inactive |
| obst-I | DRSC08339 | – | 14672 | – | 3653 | – | inactive |
| mei-9 | DRSC18792 | – | 14532 | – | 5938 | – | inactive |
| His3:CG33818 + His3:CG33857 + His3:CG33806 + 20 more | DRSC21267 | – | 13584 | – | 986 | – | inactive |
| mrt | DRSC15484 | – | 4896 | – | 3931 | – | inactive |
| CG9121 | DRSC03142 | – | 1466 | 6563 | 556 | 1736 | inactive |
| Ir68a | DRSC10599 | – | 7848 | – | 2954 | – | inactive |
| CG5043 | DRSC02805 | – | 3312 | 4245 | 1133 | 2060 | inactive |
| CG5122 | DRSC02816 | – | 2032 | 6601 | 1345 | 2813 | inactive |
| CG6770 | DRSC02992 | – | 1900 | 6418 | 961 | 2560 | inactive |
| loh | DRSC01122 | – | 17014 | – | 7149 | – | inactive |
| loh | DRSC02943 | – | 2779 | 5754 | 813 | 3142 | inactive |
